# Melanoma cell counts after drug treatment

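The test systems are human melanoma cell lines, treated with two drugs together for 72 h and then stained and imaged. Values are the number of DAPI-stained nuclei as a percentage of the DMSO control: 100 is no effect, lower means fewer cells. Every drug was used at one fixed concentration, the lower of two screened (a fifth of the higher). The file gives one value for each pair and line, without errors, so small differences may be noise.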
This is part of the screen, not chosen by result.
An entry leaves out what has no value listed here.
A dash means that no value is listed here.

All values are for the listed drug together with FH535 (1 µM): Cc1cc([N+](=O)[O-])ccc1NS(=O)(=O)c1cc(Cl)ccc1Cl

Compounds and concentrations:
selumetinib, 0.015 µM: Cn1cnc2c(F)c(Nc3ccc(Br)cc3Cl)c(C(=O)NOCCO)cc21
temozolomide, 2 µM: Cn1nnc2c(C(N)=O)ncn2c1=O
gemcitabine, 0.0004 µM: Nc1ccn([C@@H]2O[C@H](CO)[C@@H](O)C2(F)F)c(=O)n1
GW0742, 2 µM: Cc1cc(SCc2sc(-c3ccc(C(F)(F)F)c(F)c3)nc2C)ccc1OCC(=O)O
SNS-314, 0.0008 µM: O=C(Nc1cccc(Cl)c1)Nc1ncc(CCNc2ncnc3ccsc23)s1
OSI-906, 0.4 µM: C[C@]1(O)C[C@@H](c2nc(-c3ccc4ccc(-c5ccccc5)nc4c3)c3c(N)nccn32)C1
midostaurin, 0.08 µM: CO[C@@H]1[C@H](N(C)C(=O)c2ccccc2)C[C@H]2O[C@]1(C)n1c3ccccc3c3c4c(c5c6ccccc6n2c5c31)C(=O)NC4
erlotinib, 0.8 µM: C#Cc1cccc(Nc2ncnc3cc(OCCOC)c(OCCOC)cc23)c1
GSK650394, 0.16 µM: O=C(O)c1ccc(-c2c[nH]c3ncc(-c4ccccc4)cc23)cc1C1CCCC1
SU6656, 0.4 µM: CN(C)S(=O)(=O)c1ccc2c(c1)/C(=C/c1cc3c([nH]1)CCCC3)C(=O)N2
pioglitazone, 2 µM: CCc1ccc(CCOc2ccc(CC3SC(=O)NC3=O)cc2)nc1 (stereo not drawn)
decitabine, 0.1 µM: Nc1ncn([C@H]2C[C@H](O)[C@@H](CO)O2)c(=O)n1
MK-1775, 0.02 µM: C=CCn1c(=O)c2cnc(Nc3ccc(N4CCN(C)CC4)cc3)nc2n1-c1cccc(C(C)(C)O)n1
PF-04217903, 1 µM: OCCn1cc(-c2cnc3nnn(Cc4ccc5ncccc5c4)c3n2)cn1
fludarabine, 0.2 µM: Nc1nc(F)nc2c1ncn2[C@@H]1O[C@H](CO)[C@@H](O)[C@@H]1O
cediranib, 0.4 µM: COc1cc2c(Oc3ccc4[nH]c(C)cc4c3F)ncnc2cc1OCCCN1CCCC1
OSU-03012, 1 µM: NCC(=O)Nc1ccc(-n2nc(C(F)(F)F)cc2-c2ccc3c(ccc4ccccc43)c2)cc1
sunitinib, 0.4 µM: CCN(CC)CCNC(=O)c1c(C)[nH]c(/C=C2\C(=O)Nc3ccc(F)cc32)c1C
tipifarnib, 0.01 µM: Cn1cncc1[C@@](N)(c1ccc(Cl)cc1)c1ccc2c(c1)c(-c1cccc(Cl)c1)cc(=O)n2C
ZM336372, 2 µM: Cc1ccc(NC(=O)c2cccc(N(C)C)c2)cc1NC(=O)c1ccc(O)cc1
CHIR-265, 0.08 µM: Cn1c(Nc2ccc(C(F)(F)F)cc2)nc2cc(Oc3ccnc(-c4ncc(C(F)(F)F)[nH]4)c3)ccc21
LFM-A13, 2 µM: C/C(O)=C(\C#N)C(=O)Nc1cc(Br)ccc1Br
nilutamide, 1 µM: CC1(C)NC(=O)N(c2ccc([N+](=O)[O-])c(C(F)(F)F)c2)C1=O
SNS-032, 0.01 µM: CC(C)(C)c1cnc(CSc2cnc(NC(=O)C3CCNCC3)s2)o1
lenalidomide, 1 µM: Nc1cccc2c1CN(C1CCC(=O)NC1=O)C2=O (stereo not drawn)
cisplatin, 1.6 µM: N.N.[Cl][Pt][Cl]
BMS-536924, 0.2 µM: Cc1cc(N2CCOCC2)cc2[nH]c(-c3c(NC[C@@H](O)c4cccc(Cl)c4)cc[nH]c3=O)nc12
veliparib, 1.4 µM: C[C@]1(c2nc3c(C(N)=O)cccc3[nH]2)CCCN1
AZD7762, 0.02 µM: NC(=O)Nc1cc(-c2cccc(F)c2)sc1C(=O)N[C@H]1CCCNC1
GW9662, 2 µM: O=C(Nc1ccccc1)c1cc([N+](=O)[O-])ccc1Cl
tamatinib, 0.4 µM: COc1cc(Nc2ncc(F)c(Nc3ccc4c(n3)NC(=O)C(C)(C)O4)n2)cc(OC)c1OC
docetaxel, 0.0001 µM: CC(=O)O[C@@]12CO[C@@H]1C[C@H](O)[C@@]1(C)C(=O)[C@H](O)C3=C(C)[C@@H](OC(=O)[C@H](O)[C@@H](NC(=O)OC(C)(C)C)c4ccccc4)C[C@@](O)([C@@H](OC(=O)c4ccccc4)[C@H]21)C3(C)C
etoposide, 0.02 µM: COc1cc([C@@H]2c3cc4c(cc3[C@@H](O[C@@H]3O[C@@H]5CO[C@@H](C)O[C@H]5[C@H](O)[C@H]3O)[C@H]3COC(=O)[C@H]23)OCO4)cc(OC)c1O
CP-690550, 1 µM: C[C@@H]1CCN(C(=O)CC#N)C[C@@H]1N(C)c1ncnc2[nH]ccc12
JZL184, 1 µM: O=C(Oc1ccc([N+](=O)[O-])cc1)N1CCC(C(O)(c2ccc3c(c2)OCO3)c2ccc3c(c2)OCO3)CC1

Partner	A375	LB2518-MEL	A101D	C32	COLO 792	MEL-HO
PF-04217903	99.9	115	96.2	92.6	102	95.8
GW0742	98.9	112	97.9	99.2	106	102
GW9662	103	-	90.6	94.9	93.2	92.1
LFM-A13	88.5	99.9	85.1	91.1	78.4	84.6
veliparib	80.3	84.7	78.4	95.9	91.9	96.8
MK-1775	49.6	-	82.5	102	91.2	102
OSI-906	-	79.1	91.4	84.9	74.8	78.4
temozolomide	95.0	-	82.7	98.9	101	78.5
ZM336372	110	84.2	84.8	72.3	86.5	88.2
JZL184	95.9	97.7	85.0	90.1	95.5	100
fludarabine	-	78.0	89.5	84.8	76.3	110
BMS-536924	85.6	83.7	98.6	92.5	82.8	116
gemcitabine	-	111	80.3	77.1	98.5	65.9
lenalidomide	98.7	101	86.2	101	96.8	109
midostaurin	97.7	83.6	90.1	84.1	81.1	101
docetaxel	-	-	58.1	89.5	35.6	74.9
cisplatin	-	83.2	81.9	88.8	94.6	87.1
cediranib	110	97.8	96.7	94.5	90.4	84.0
etoposide	-	94.2	89.1	81.3	90.4	106
tamatinib	81.3	80.2	73.5	106	48.6	92.9
CP-690550	96.2	99.2	81.2	99.2	118	91.5
GSK650394	71.9	81.0	89.2	88.8	92.8	89.3
nilutamide	84.3	86.8	84.9	95.9	90.8	92.4
tipifarnib	95.4	82.5	72.6	90.0	87.3	107
CHIR-265	56.6	47.4	64.0	77.3	38.3	77.5
selumetinib	-	-	80.1	80.9	75.4	92.3
erlotinib	108	104	75.5	86.6	78.0	73.3
AZD7762	72.6	145	67.5	99.0	92.6	103
SU6656	122	89.7	72.4	93.6	91.8	108
decitabine	-	74.1	79.7	97.2	74.5	80.4
OSU-03012	-	99.7	-	106	83.4	86.9
sunitinib	-	114	70.3	86.7	93.0	92.2
SNS-032	106	91.4	72.7	99.3	100	90.4
pioglitazone	93.6	88.6	78.9	112	97.3	84.1
SNS-314	99.8	111	87.6	96.2	80.1	89.2

The first 3 entries again:

{"partner": "PF-04217903", "A375": 99.9, "LB2518-MEL": 115, "A101D": 96.2, "C32": 92.6, "COLO 792": 102, "MEL-HO": 95.8}
{"partner": "GW0742", "A375": 98.9, "LB2518-MEL": 112, "A101D": 97.9, "C32": 99.2, "COLO 792": 106, "MEL-HO": 102}
{"partner": "GW9662", "A375": 103, "A101D": 90.6, "C32": 94.9, "COLO 792": 93.2, "MEL-HO": 92.1}

Values as published with doi:10.1371/journal.pone.0140310, rounded.